PubChem BioAssay AID1159584 – Peter MacCallum Cancer Centre | 2016
Screen: 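Knock-downs that harm CDH1-null cells more than parental MCF10A cells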 (primary screen). System: human MCF10A breast epithelial cells, parental and CDH1-null. Knock-down reagent: siRNA against human genes. Read-out: 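Cell viability by CellTiter-Glo ATP luminescence, each line scaled to the mean of mock wells across plates, then CDH1-null over parental ratio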. Scale: CDH1-null / parental viability ratio: higher = CDH1-null cells survive relatively better than parental; CDH1-null viability vs mock: higher = more viable CDH1-null cells; parental viability vs mock: higher = more viable parental cells.
Here is one part, drawn at random, of about 18,000 reagents tested. The record does not give: the amount of reagent, the time to read-out.

no.	gene knocked down	CDH1-null / parental viability ratio	CDH1-null viability vs mock (fraction of mock)	parental viability vs mock (fraction of mock)
1	HEATR5B (GeneID 54497)	0.96	0.65	0.68
2	DDX50 (GeneID 79009)	1.07	0.95	0.89
3	CRYGD (GeneID 1421)	0.98	0.9	0.92
4	GLI2 (GeneID 2736)	0.94	0.92	0.98
5	OSM (GeneID 5008)	1.57	0.66	0.42
6	OR5H6 (GeneID 79295)	0.94	1.14	1.21
7	TMEM132E-DT (GeneID 400591)	0.79	0.66	0.84
8	OR4D9 (GeneID 390199)	1.12	0.72	0.64
9	RPH3A (GeneID 22895)	2.09	0.92	0.44
10	DPPA3 (GeneID 359787)	0.71	0.55	0.77
11	ODAD1 (GeneID 93233)	1.2	0.78	0.65
12	PTPN18 (GeneID 26469)	1.14	0.74	0.65
13	ZSWIM1 (GeneID 90204)	1.12	0.64	0.57
14	APPL2 (GeneID 55198)	0.95	0.6	0.63
15	TXK (GeneID 7294)	1.19	1	0.84
16	OR8B4 (GeneID 283162)	1.18	0.9	0.76
17	DDX24 (GeneID 57062)	0.99	0.66	0.67
18	PLD5 (GeneID 200150)	0.99	0.76	0.77
19	OR11L1 (GeneID 391189)	0.85	0.71	0.84
20	ZFP90 (GeneID 146198)	0.86	0.64	0.74
21	DIRAS2 (GeneID 54769)	1.16	1.06	0.91
22	SLC22A15 (GeneID 55356)	1.04	0.74	0.71
23	BMAL2 (GeneID 56938)	1.01	0.94	0.93
24	ANTKMT (GeneID 65990)	0.94	0.5	0.53
25	AP2A1 (GeneID 160)	0.99	0.75	0.76
26	HEY1 (GeneID 23462)	0.99	0.78	0.79
27	MYEOV (GeneID 26579)	1.46	0.7	0.48
28	C14orf119 (GeneID 55017)	0.83	0.45	0.54
29	SLC44A4 (GeneID 80736)	0.85	0.74	0.87
30	ERAS (GeneID 3266)	0.82	0.72	0.88
31	PLEKHM3 (GeneID 389072)	1.01	0.76	0.75
32	CHTF18 (GeneID 63922)	1.37	1.03	0.75
33	ATOH8 (GeneID 84913)	1.08	0.8	0.74
34	YARS2 (GeneID 51067)	0.96	0.48	0.5
35	NACC1 (GeneID 112939)	1.37	0.7	0.51
36	TMEM201 (GeneID 199953)	1.05	0.67	0.64
37	OR14I1 (GeneID 401994)	1.06	0.66	0.62
38	LIPK (GeneID 643414)	0.93	0.91	0.98
39	ERVFRD-1 (GeneID 405754)	1.02	0.64	0.63
40	HTRA3 (GeneID 94031)	1.21	0.46	0.38
41	LMNTD1 (GeneID 160492)	0.86	0.69	0.8
42	ZNF137P (GeneID 7696)	0.88	0.74	0.84
43	OR8A1 (GeneID 390275)	0.93	0.8	0.86
44	C1orf159 (GeneID 54991)	1.11	0.62	0.56
45	SLC34A1 (GeneID 6569)	0.84	0.76	0.9
46	NRSN2 (GeneID 80023)	1.25	0.9	0.72
47	UBE2S (GeneID 27338)	1.24	0.77	0.62
48	IDI1 (GeneID 3422)	1.11	1.04	0.94
49	UNC119 (GeneID 9094)	1.07	0.8	0.75
50	HOXA13 (GeneID 3209)	1.12	0.96	0.86
51	LKAAEAR1 (GeneID 198437)	0.84	0.32	0.38
52	AQP4 (GeneID 361)	1.14	0.74	0.65
53	NRL (GeneID 4901)	1.06	0.92	0.87
54	TFRC (GeneID 7037)	1.1	0.68	0.62
55	ADIPOQ (GeneID 9370)	1.03	0.99	0.96
56	OR51A2 (GeneID 401667)	1.12	0.76	0.68
57	PDF (GeneID 64146)	1.27	0.94	0.74
58	SMUG1 (GeneID 23583)	1.07	1.16	1.08
59	RHOT1 (GeneID 55288)	1.18	0.84	0.71
60	TM2D1 (GeneID 83941)	0.89	0.88	0.99
61	PIK3CD (GeneID 5293)	0.88	0.78	0.89
62	CDC40 (GeneID 51362)	1.33	0.64	0.48
63	ZFP2 (GeneID 80108)	0.81	0.76	0.94
64	PEX5L (GeneID 51555)	0.98	0.64	0.65
65	OR1J1 (GeneID 347168)	1.25	0.94	0.75
66	CD8B (GeneID 926)	0.99	0.99	1
67	WFDC10B (GeneID 280664)	1.22	0.9	0.74
68	KRCC1 (GeneID 51315)	0.91	0.86	0.95
69	SLC15A3 (GeneID 51296)	1.2	1.12	0.93
70	RIBC1 (GeneID 158787)	0.95	0.74	0.78
71	HEXD (GeneID 284004)	0.91	0.86	0.94
72	FOXR1 (GeneID 283150)	0.97	0.72	0.74
73	SLC35B3 (GeneID 51000)	1.09	0.7	0.64
74	DGUOK (GeneID 1716)	1	0.76	0.76
75	LDLRAP1 (GeneID 26119)	0.85	0.8	0.94
76	TM6SF2 (GeneID 53345)	1.04	0.52	0.5
77	DNAAF3 (GeneID 352909)	1.23	0.92	0.75
78	OR13C2 (GeneID 392376)	0.93	1.15	1.24
79	CYLD (GeneID 1540)	1	0.4	0.4
80	OR5K2 (GeneID 402135)	0.78	0.6	0.77
81	MCAM (GeneID 4162)	0.89	0.58	0.65
82	TRMT2A (GeneID 27037)	1.11	0.4	0.36
83	HLA-DOA (GeneID 3111)	1.46	1.05	0.72
84	DIAPH3 (GeneID 81624)	1.05	0.92	0.88
85	CITED4 (GeneID 163732)	1.2	0.98	0.82
86	STK24 (GeneID 8428)	1.08	1	0.93
87	LTK (GeneID 4058)	0.75	0.83	1.1

Part of the list above, set out differently:
gene knocked down	CDH1-null / parental viability ratio	CDH1-null viability vs mock (fraction of mock)	parental viability vs mock (fraction of mock)
OR8B4 (GeneID 283162)	1.18	0.9	0.76
DDX24 (GeneID 57062)	0.99	0.66	0.67
PLD5 (GeneID 200150)	0.99	0.76	0.77
OR11L1 (GeneID 391189)	0.85	0.71	0.84
ZFP90 (GeneID 146198)	0.86	0.64	0.74
DIRAS2 (GeneID 54769)	1.16	1.06	0.91
SLC22A15 (GeneID 55356)	1.04	0.74	0.71
